Measured data: PubChem BioAssay AID1224829 (NIAID, 2016)

- Assay: 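Secondary check of hits that alter LPS-induced p65 translocation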 (follow-up of hits)
- System: mouse RAW264.7 G9 macrophage reporter cells
- Reagent: single siRNA against mouse genes, 100 nM
- Time to read-out: 2 days of siRNA knock-down, then 40 min of LPS before fixing
- Conditions: LPS (Salmonella minnesota R595) at 10 ng/ml
- Detection: 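High-content images after 40 min LPS exposure; GFP-p65 nucleus to surrounding ring signal ratio, normalised to plate median and non-targeting control wells, expressed as z-score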
- Reading the numbers: p65 translocation z-score: higher = more nuclear NF-kappaB p65 after LPS
- Rule for the call: 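Active means the replicate-mean z-score lies beyond plus or minus 2, in either direction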
- Calls: active = changed p65 translocation (either direction); inactive = no clear change
The whole screen tested about 3,800 reagents; below is a part drawn at random. 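Calls cover raised and lowered translocation; gene median uses one vendor's three siRNAs; qiagen siRNAs acted more weakly than ambion siRNAs.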 Reagents against one gene are numbered here. Not all columns of the deposit are shown. No sequences are given here.

no.	gene knocked down	reagent no.	siRNA vendor or control pool	p65 translocation z-score, replicate mean	p65 translocation z-score, replicate 1	p65 translocation z-score, replicate 2	outcome
1	Nle1	1	ambion single siRNA	-1.48	-2.26	-0.694	inactive
2	Nle1	2	ambion single siRNA	-1.49	-1.49		inactive
3	Nle1	3	ambion single siRNA	-3.04	-2.32	-3.77	active
4	Nle1	4	qiagen single siRNA	1.5	1.54	1.46	inactive
5	Nle1	5	qiagen single siRNA	-3.66	-2.67	-4.65	active
6	Nle1	6	qiagen single siRNA	-3.72	-2.9	-4.54	active
7	Krt6b	1	qiagen single siRNA	-2.1	-2.21	-1.99	active
8	Krt6b	2	qiagen single siRNA	-4.7	-3.8	-5.61	active
9	Krt6b	3	qiagen single siRNA	0.0712	-0.879	1.02	inactive
10	Slc38a9	1	ambion single siRNA	1.02	2.05	-0.00842	inactive
11	Slc38a9	2	ambion single siRNA	0.64	0.297	0.984	inactive
12	Slc38a9	3	ambion single siRNA	-0.473	-1.61	0.663	inactive
13	Palm	1	ambion single siRNA	-3.87	-3.93	-3.81	active
14	Palm	2	ambion single siRNA	0.24	0.686	-0.206	inactive
15	Palm	3	ambion single siRNA	-1.54	-1.54		inactive
16	Palm	4	qiagen single siRNA	1.03	1.2	0.857	inactive
17	Palm	5	qiagen single siRNA	0.0153	0.473	-0.443	inactive
18	Palm	6	qiagen single siRNA	-1.95	-2.45	-1.44	inactive
19	Stat4	1	ambion single siRNA	0.831	1.36	0.306	inactive
20	Stat4	2	ambion single siRNA	1.93	2.83	1.03	inactive
21	Stat4	3	ambion single siRNA	-3.85	-4.66	-3.04	active
22	Stat4	4	qiagen single siRNA	0.84	0.385	1.29	inactive
23	Stat4	5	qiagen single siRNA	2.94	1.05	4.83	active
24	Stat4	6	qiagen single siRNA	0.443	0.129	0.758	inactive
25	Tceal6	1	qiagen single siRNA	2.66	1.94	3.38	active
26	Tceal6	2	qiagen single siRNA	-0.48	0.173	-1.13	inactive
27	Tceal6	3	qiagen single siRNA	-0.0551	-0.0551		inactive
28	Tnfrsf13c	1	ambion single siRNA	0.919	0.897	0.94	inactive
29	Tnfrsf13c	2	ambion single siRNA	2.71	2.95	2.48	active
30	Tnfrsf13c	3	ambion single siRNA	-1.04	-1.44	-0.635	inactive
31	Tnfrsf13c	4	qiagen single siRNA	-0.225	0.992	-1.44	inactive
32	Tnfrsf13c	5	qiagen single siRNA	-2.14	-2.4	-1.88	active
33	Tnfrsf13c	6	qiagen single siRNA	2.48	1.86	3.09	active
34	Ube3c	1	ambion single siRNA	-0.604	-0.499	-0.708	inactive
35	Ube3c	2	ambion single siRNA	-1.8	-2.04	-1.56	inactive
36	Ube3c	3	ambion single siRNA	-3.9	-3.9		active
37	Ube3c	4	qiagen single siRNA	0.712	-0.362	1.79	inactive
38	Ube3c	5	qiagen single siRNA	-2.14	-1.39	-2.89	active
39	Ube3c	6	qiagen single siRNA	-3.57	-2.3	-4.85	active

Part of the list above in another layout.
{"gene knocked down": "Nle1", "reagent no.": 2, "siRNA vendor or control pool": "ambion single siRNA", "p65 translocation z-score, replicate mean": -1.49, "p65 translocation z-score, replicate 1": -1.49, "outcome": "inactive"}
{"gene knocked down": "Nle1", "reagent no.": 3, "siRNA vendor or control pool": "ambion single siRNA", "p65 translocation z-score, replicate mean": -3.04, "p65 translocation z-score, replicate 1": -2.32, "p65 translocation z-score, replicate 2": -3.77, "outcome": "active"}
{"gene knocked down": "Nle1", "reagent no.": 4, "siRNA vendor or control pool": "qiagen single siRNA", "p65 translocation z-score, replicate mean": 1.5, "p65 translocation z-score, replicate 1": 1.54, "p65 translocation z-score, replicate 2": 1.46, "outcome": "inactive"}
{"gene knocked down": "Nle1", "reagent no.": 5, "siRNA vendor or control pool": "qiagen single siRNA", "p65 translocation z-score, replicate mean": -3.66, "p65 translocation z-score, replicate 1": -2.67, "p65 translocation z-score, replicate 2": -4.65, "outcome": "active"}
{"gene knocked down": "Nle1", "reagent no.": 6, "siRNA vendor or control pool": "qiagen single siRNA", "p65 translocation z-score, replicate mean": -3.72, "p65 translocation z-score, replicate 1": -2.9, "p65 translocation z-score, replicate 2": -4.54, "outcome": "active"}
{"gene knocked down": "Krt6b", "reagent no.": 1, "siRNA vendor or control pool": "qiagen single siRNA", "p65 translocation z-score, replicate mean": -2.1, "p65 translocation z-score, replicate 1": -2.21, "p65 translocation z-score, replicate 2": -1.99, "outcome": "active"}
